Measured values taken from PubChem BioAssay AID2685 (National Center for Advancing Translational Sciences (NCATS), 2010).
Some of the results follow. Shown are side measurements of this screen, not its main read-out; they come without a call. Most of these compounds were active or inconclusive in the main read-out, so they are no random draw. Potencies come from curve fits of mixed quality, noted in brackets.

Assay: qHTS Assay for Lipid Storage Modulators in Drosophila S3 Cells;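 as to cell number change: cells counted by Cell Tracker Red CMTPX staining in the red channel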
Details: BODIPY lipid droplet fluorescence, 18-24 h; for cell number change: measured here: cell count max response, cells fed with added oleic acid
Procedure, shortened: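 Laser-scanning cytometry quantifies lipid droplet accumulation (500–530 nm total intensity; droplet/cell object ratio) in oleic acid-fed (400 uM added) Drosophila S3 cells treated with a concentration series. 20 uM Triacsin C defined 100% inhibition.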

[1] = measured here: lipid fluorescence (Fed channel) AC50, cells fed with added oleic acid
[2] = measured here: cell number channel AC50, cells fed with added oleic acid

Row | SMILES | cell number change [%] | AC50 [1] | AC50 [2]
1 | Cc1ccc2nc(Br)c3c(c2c1)OC(CBr)C3 (centres undefined) | -22.6 | 13 µM [falling, partial curve] | –
2 | Cc1cc(C)c(C#N)c(N2CCN(c3ccccc3F)CC2)n1 | 15.5 | – | –
3 | O=C(O)CSc1nnc(-c2ccc(Cl)cc2Cl)n1Cc1ccccc1 | – | 7.31 µM [falling, partial curve] | –
4 | CCc1ccc(-c2cc3c(=O)n(CC(=O)NCCCN4CCN(C)CC4)ncn3n2)cc1 | – | 29.1 µM [rising, single point] | –
5 | O=C(NCCCN1CCOCC1)c1ccc2c(=O)n(Cc3cccc(Br)c3)c(=S)[nH]c2c1 | 9.91 | 6.51 µM [rising, single point] | –
6 | C/C(=N/NC(=O)c1ccc(C)s1)c1ccncc1 | 6.9 | 5.17 µM [rising, full curve, poor fit] | –
7 | COc1cc(-n2c(N)c(C(=O)NCc3ccco3)c3nc4ccccc4nc32)cc(OC)c1OC | 5.57 | 0.651 µM [rising, partial curve] | –
8 | CC1(C)CC(Nc2ccc(Nc3ccccc3)cc2)CC(C)(C)N1 | -57.7 | 25.9 µM [falling, partial curve, poor fit] | 23.1 µM [falling, single point]
9 | CCCCc1ccc(Nc2nc(N3CCOCC3)nc(N3CCOCC3)n2)cc1 | 10.1 | 29.1 µM [rising, single point] | –
10 | Cc1ccccc1-n1c(CSC(=N)N)nc2ccccc2c1=O | 9.42 | 0.58 µM [falling, single point] | –
11 | Cc1ccc(CCNC(=O)C2CCN(S(=O)(=O)N3CCC4(CC3)OCCO4)CC2)cc1 | 174 | 29.1 µM [rising, single point] | –
12 | CCn1c(CNC(=O)c2ccco2)nnc1SCC(=O)Nc1cc(F)ccc1C | 2.86 | – | –
13 | COC(=O)CNC(=O)C(Cc1c[nH]c2ccccc12)NC(=O)OC(C)(C)C (centres undefined) | -2.88 | 29.1 µM [rising, single point] | –
14 | COCCNC(=O)Cn1cnc2c1c(=O)n(C)c(=O)n2C | -55.5 | 29.1 µM [falling, single point] | 23.1 µM [falling, single point]
15 | Cc1ccc(C)c(CN2CCCN(C(=O)Cn3ncc4c3-c3ccccc3OC4)C2)c1 | -16.7 | 2.59 µM [rising, partial curve] | –
16 | CC(C)[C@@H](CO)NC(=O)c1ccc2c3n(nc2c1)-c1ccc(Cl)cc1CO3 | -0.982 | 6.51 µM [falling, single point] | –
17 | COc1ccc(C(=O)NNS(=O)(=O)c2ccccc2)cc1 | 36.9 | 13 µM [rising, partial curve] | 29.1 µM [rising, single point]
18 | COc1cccc(CNC(=O)Cc2csc(NC(=O)Nc3ccccc3OC)n2)c1 | – | – | 0.146 µM [rising, full curve, poor fit]
19 | Cc1ccc(SCC(=O)Nc2ccccc2N2CCOCC2)cc1 | 30.4 | – | 0.411 µM [rising, full curve, poor fit]
20 | CCCc1cc(=O)oc2cc(OC3CCCCC3=O)ccc12 (centres undefined) | -2.13 | 0.651 µM [falling, full curve, poor fit] | –

Row | SMILES | cell number change [%] | AC50 [1] | AC50 [2]
21 | Cc1oc(-c2ccccc2Cl)nc1CS(=O)CC(=O)NCc1ccc(Cl)cc1 (centres undefined) | 25.8 | – | 6.51 µM [rising, partial curve, poor fit]
22 | CCC1(C)Cc2ccccc2C(Nc2c(C)n(C)n(-c3ccccc3)c2=O)=N1 (centres undefined) | 31 | 6.51 µM [falling, single point] | 9.2 µM [rising, partial curve]
23 | CN(c1ccccc1)S(=O)(=O)c1cccc(NC(=O)COc2cccc([N+](=O)[O-])c2)c1 | 2.02 | 2.31 µM [rising, partial curve, poor fit] | –
24 | CCCCNC(=O)/C=C/c1ccc(S(=O)(=O)Nc2ccc(OC)cc2)cc1 | – | 0.731 µM [falling, single point] | 0.731 µM [falling, single point]
25 | Cc1cccc(OCc2nnc(SCC(=O)Nc3ncc(C)s3)o2)c1 | 17.3 | – | –
26 | COc1c2ccoc2nc2c(OC)cccc12 | 11.1 | 29.1 µM [rising, single point] | –
27 | COCCNC(=O)CN(C)S(=O)(=O)c1ccc2c(c1)OCCO2 | – | – | 0.731 µM [falling, single point]
28 | C/C(=N\NC(=O)C1COc2ccccc2O1)c1cccs1 (centres undefined) | 33.9 | – | 5.8 µM [rising, full curve, poor fit]
29 | Cc1ccsc1C1C(C#N)=C(N)N(N(C)C)C2=C1C(=O)CCC2 (centres undefined) | -70.4 | 0.206 µM [falling, full curve, poor fit] | 2.59 µM [falling, partial curve]
30 | O=C(NCC(c1ccco1)N1CCCC1)c1sc2ccccc2c1Cl (centres undefined) | 8.5 | 4.61 µM [falling, full curve, poor fit] | –
31 | Nc1c2c(nc3ccn(-c4ccccc4)c(=O)c13)CCCCC2 | 2.37 | 0.116 µM [falling, full curve] | –
32 | COc1ccc(CNS(=O)(=O)c2cc3c4c(c2)CCN4C(=O)CC3)cc1 | 7.2 | 29.1 µM [falling, single point] | –
33 | CCOC(=O)c1sc(=S)n(Cc2ccccc2)c1N | -31 | – | 16.4 µM [falling, partial curve, poor fit]
34 | CN1CCc2nc(SCC(=O)Nc3ccc(F)cc3)c(C#N)cc2C1 | – | 0.411 µM [rising, single point] | –
35 | Fc1ccc(NC(=S)N2CCN(C/C=C/c3ccccc3)CC2)c(F)c1 | -60.5 | – | –
36 | CCC(C)[C@H](N)c1nnc(SCc2cccc(F)c2)o1 (some centres undefined) | 0.182 | – | –
37 | CCCCSc1nc(N)c(C#N)c(-c2cccs2)c1C#N | -9.85 | 1.84 µM [rising, partial curve] | –
38 | CCOC(=O)C1=C(COC(=O)Cc2ccccc2F)NC(=O)NC1C (centres undefined) | -5.86 | 25.9 µM [falling, partial curve, poor fit] | –
39 | COCCN(C(=S)Nc1c(C)cccc1C)C(C)c1cccnc1 (centres undefined) | 64 | 6.51 µM [rising, single point] | 29.1 µM [rising, single point]

Some of these compounds in order of formula weight, rising:
Row | SMILES | cell number change [%] | AC50 [1] | AC50 [2]
33 | CCOC(=O)c1sc(=S)n(Cc2ccccc2)c1N | -31 | – | 16.4 µM [falling, partial curve, poor fit]
39 | COCCN(C(=S)Nc1c(C)cccc1C)C(C)c1cccnc1 (centres undefined) | 64 | 6.51 µM [rising, single point] | 29.1 µM [rising, single point]
22 | CCC1(C)Cc2ccccc2C(Nc2c(C)n(C)n(-c3ccccc3)c2=O)=N1 (centres undefined) | 31 | 6.51 µM [falling, single point] | 9.2 µM [rising, partial curve]
